In article doi:10.1101/2021.06.10.445978:
No constants are given. Whether binding was seen depends on the method and setting. Binding seen in cells or lysates may run through a third protein. A result given as binding can be weak or reduced; the word gives no strength. Where a sequence is shown, tags or fusion partners need not be part of it. Blank lines part the entries; values can stand above or below the binder they belong to.

Amino acid sequences for entries named in this document (tags omitted). A change or cut given only in a name is not applied to a line headed by its entry.
UniProt O48915: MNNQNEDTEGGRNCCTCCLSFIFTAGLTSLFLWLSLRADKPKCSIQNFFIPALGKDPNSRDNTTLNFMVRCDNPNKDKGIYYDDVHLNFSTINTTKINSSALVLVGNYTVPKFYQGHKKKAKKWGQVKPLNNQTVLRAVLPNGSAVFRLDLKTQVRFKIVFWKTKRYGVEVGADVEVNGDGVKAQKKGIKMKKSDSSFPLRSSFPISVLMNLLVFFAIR

How the values were obtained:
[1] = biological target: Flag-NDR1 (Arabidopsis thaliana) (UniProt O48915); test: co-IP
[2] = biological target: myc-nEYFP-NDR1 (Arabidopsis thaliana) (UniProt O48915); test: split reporter

- binding [1]: binds
B1: HA-AHA5 (enzyme, UniProt Q9SJB3 1-949)
chain: MSELDHIKNESVDLVRIPMEEVFEELKCTKQGLTANEASHRLDVFGPNKLEEKKESKLLKFLGFMWNPLSWVMEVAALMAIALANGGGRPPDWQDFVGIVCLLLINSTISFIEENNAGNAAAALMAGLAPKTKVLRDNQWSEQEASILVPGDVISIKLGDIIPADARLLDGDPLKIDQSSLTGESIPVTKNPSDEVFSGSICKQGEIEAIVIATGVHTFFGKAAHLVDNTNQIGHFQKVLTSIGNFCICSIALGIIVELLVMYPIQRRRYRDGIDNLLVLLIGGIPIAMPSVLSVTMATGSHRLFQQGAITKRMTAIEEMAGMDVLCCDKTGTLTLNKLTVDKNLVEVFAKGVGKEHVFLLAARASRIENQDAIDAAIVGMLADPKEARAGVREVHFFPFNPVDKRTALTYVDSDGNWHRASKGAPEQILNLCNCKEDVRRKVHGVIDKFAERGLRSLAVARQEVLEKKKDAPGGPWQLVGLLPLFDPPRHDSAETIRRALNLGVNVKMITGDQLAIGKETGRRLGMGTNMYPSSALLGQVKDSSLGALPVDELIEKADGFAGVFPEHKYEIVHRLQQRNHICGMTGDGVNDAPALKKADIGIAVVDATDAARGASDIVLTEPGLSVIISAVLTSRAIFQRMKNYTIYAVSITIRIVFGFMFIALIWQFDFSPFMVLIIAILNDGTIMTISKDRMKPSPQPDSWKLRDIFSTGVVLGGYQALMTVVFFWVMKDSDFFSNYFGVRPLSQRPEQMMAALYLQVSIISQALIFVTRSRSWSYAECPGLLLLGAFVIAQLVATFIAVYANWSFARIEGAGWGWAGVIWLYSFLTYIPLDLLKFGIRYVLSGKAWLNLLENKTAFTTKKDYGKEEREAQWAAAQRTLHGLQPAEKNNIFNEKNSYSELSQIAEQAKRRAEVVRLREINTLKGHVESVVKLKGLDIDTIQQHYTV

- binding [2]: binds
B2: AHA5-HA-cEYFP (enzyme, UniProt Q9SJB3 1-949)
chain: B1 chain
